In this experiment the test system is RAW 264.7. The experiment can be described thus: cell viability (MTT) relative to vehicle control; higher = more viable cells. Particulars: stimulus: HMGB1 5 ug/ml, 18 h.
Where [1] appears, read: compound concentration: 1 ug/ml.

As usually defined, the cell viability is a read-out of living cells in per cent, often relative to untreated cells.

Where “and” joins values, the source holds several entries; their conditions need not be identical. Equal values may be shown once. Where a name gives a salt, the structure may show the parent alone. ± gives the standard deviation of the averaged measurements. This is one part of the list. Single values are uncertain, as repeats are few or missing.

`CCCC[N+]1(C)[C@H]2CC(OC(=O)C(CO)c3ccccc3)C[C@H]1[C@H]1O[C@H]12` (stereo not given in full) [Scopolamine N-butyl]: the cell viability (compound concentration: 3 uM) is 96.9%.

As for `CC1=C2C3OC(=O)C(C)C3CCC2(C)C=CC1=O` (stereo not given) [a-Santonin], the cell viability under setting [1] came out at 104%. Regarding `CC1C=CC=CCCC=CC=CC=CC=CC(OC2OC(C)C(O)C(N)C2O)CC2OC(O)(CC(O)C(O)CCC(O)CC(O)CC(O)CC(=O)OC(C)C(C)C1O)CC(O)C2C(=O)O` (stereo not given) [Nystatin], under “compound concentration: 3 uM”, the cell viability came out at 119%. Consider `CC1C=CC=CCCC=CC=CC=CC=CC(OC2OC(C)C(O)C(N)C2O)CC2OC(O)(CC(O)C(O)CCC(O)CC(O)CC(O)CC(=O)OC(C)C(C)C1O)CC(O)C2C(=O)O` (stereo not given), for which the cell viability (compound concentration: 3 uM) is 111%. The same measure, in the same setting: to `CC(N)C(O)c1ccc(O)c(O)c1` (single isomer, unassigned; (-)) [(-)-alpha-Methylnorepinephrine] belongs 104%. Consider `CC(C)[C@@]1(NC(=O)[C@@H]2C=C3c4cccc5[nH]cc(c45)C[C@H]3N(C)C2)O[C@@]2(O)[C@@H]3CCCN3C(=O)[C@H](Cc3ccccc3)N2C1=O` [Ergocristine], for which the cell viability under setting [1] was 104%. For the compound `COc1ccc2c(c1)[C@@]13CCCC[C@H]1[C@@H](C2)NCC3` [3-Methoxy-morphanin hydrochloride], where the note is “compound concentration: 3 uM”, the cell viability amounted to 113%. As for `COc1cc2c(c(OC)c1OC)-c1ccc(OC)c(=O)cc1[C@@H](NC(C)=O)CC2` [Colchicine], the cell viability under setting [1] was 92.6% and the cell viability (compound concentration: 3 uM) came to 65.5 ± 7.5%. In the case of `COc1cc2c(c(OC)c1OC)-c1ccc(OC)c(=O)cc1[C@@H](NC(C)=O)CC2`, the cell viability (compound concentration: 3 uM) was 77.9 ± 1.5%. The same measure, in the same setting: to `CC[C@@H](CO)NC(=O)[C@@H]1C=C2c3cccc4c3c(cn4C)C[C@H]2N(C)C1` belongs 104%; to `CC[C@@H](CO)NC(=O)[C@@H]1C=C2c3cccc4c3c(cn4C)C[C@H]2N(C)C1` [Methysergide maleate], 117%. The same measure, in the same setting: in the case of `CC[C@@H](CO)NC(=O)[C@@H]1C=C2c3cccc4c3c(cn4C)C[C@H]2N(C)C1` [Methysergide] it was 106%; in that of `N#C[C@H](O[C@@H]1O[C@H](CO[C@@H]2O[C@H](CO)[C@@H](O)[C@H](O)[C@H]2O)[C@@H](O)[C@H](O)[C@H]1O)c1ccccc1`, 91.9%; in that of `CC(C)C1CNC(C(=O)O)C1CC(=O)O` (stereo not given) [Dihydrokainic acid], 109%. Still for that read-out and setting: in the case of `C[C@]12CC[C@H](O)CC1=CC[C@@H]1[C@@H]2CC[C@]2(C)C(=O)CC[C@@H]12` it was 113% and 99.6%; in that of `C[C@]12CC[C@H](O)CC1=CC[C@@H]1[C@@H]2CC[C@]2(C)C(=O)CC[C@@H]12` [Dehydroepiandrosterone], 99%. Take `CN1C(=O)CN=C(c2ccccc2)c2cc(Cl)ccc21` [Diazepam]: the cell viability (compound concentration: 3 uM) was 93.3%. The same measure, in the same setting: in the case of `Cc1cc([C@@H]2CCCN2C)on1` [ABT-418 hydrochloride] it was 104%. On to `C=C1C/C(=C/C)C(=O)O[C@@H]2CCN3CC=C(COC(=O)[C@]1(C)O)[C@H]23` [Seneciphylline], for which the cell viability under setting [1] is 89.8%. As for `c1ccc2c(c1)OCC(C1=NCCN1)O2` (stereo not given) [Idazoxan hydrochloride], the cell viability (compound concentration: 3 uM) is 94.6 ± 6.3%. For `c1ccc2c(c1)OCC(C1=NCCN1)O2` (stereo not given) [Idazoxan], the cell viability (compound concentration: 3 uM) came to 112%. Still for that read-out and setting: to `c1ccc2c(c1)OCC(C1=NCCN1)O2` (stereo not given) belongs 110%; to `CCCCCC[C@H]1C(=O)O[C@H](C)[C@H](NC(=O)c2cccc(NC=O)c2O)C(=O)O[C@@H](C)[C@@H]1OC(=O)CC(C)C` [Antimycin A], 77.2%.

Consider `CCCN(CCC)[C@H]1CCc2c(F)ccc(O)c2C1` [S(-)-UH-301 hydrochloride], for which, under “compound concentration: 3 uM”, the cell viability was 108%. Still for that read-out and setting: in the case of `CC[N+]1(C)CCCC(OC(=O)C(O)(c2ccccc2)c2ccccc2)C1` (stereo not given) [Pipenzolate bromide] it was 109%. Turning to `CC[N+]1(C)CCCC(OC(=O)C(O)(c2ccccc2)c2ccccc2)C1` (stereo not given), for the setting “compound concentration: 3 uM”, the cell viability was 109%. Still for that read-out and setting: in the case of `C/C=C(/C)C(=O)O[C@H]1C(C)=C2[C@H]([C@@H]1OC(=O)CCCCCCC)[C@@](C)(OC(C)=O)C[C@H](OC(=O)CCC)[C@@]1(O)[C@H]2OC(=O)[C@@]1(C)O` [Thapsigargin] it was 13.3%; in that of `C[C@]12CC[C@@H](O)C[C@@H]1CC[C@@H]1[C@@H]2CC[C@]2(C)[C@@H](C(=O)CO)CC[C@@H]12` [3-alpha,21-Dihydroxy-5-alpha-pregnan-20-one], 102%; in that of `CC1=C2C(=CO[C@H](C)[C@H]2C)C(O)=C(C(=O)O)C1=O`, 138%. For the compound `CCCN(CCC)C1CCc2cccc(O)c2C1` (racemic) [(±)-8-Hydroxy-DPAT hydrobromide], under “compound concentration: 3 uM”, the cell viability amounted to 104%. For the compound `CC(C)c1cccc(C(C)C)c1O`, the cell viability (compound concentration: 3 uM) is 108%. In the case of `CC(C)c1cccc(C(C)C)c1O` [Propofol], under “compound concentration: 3 uM”, the cell viability turned out to be 103 ± 6.7%. The same measure, in the same setting: in the case of `C[C@]12CC[C@H](O)C[C@H]1CC[C@@H]1[C@@H]2CC[C@]2(C)[C@@H](C3=CC(=O)OC3)CC[C@]12O` [Digitoxigenin] it was 115%.

With `CCCCCCCCCOc1ccc2[nH]cc(CCN)c2c1` [5-Nonyloxytryptamine], the cell viability (compound concentration: 3 uM) came out at 99.6%. In the case of `C[C@]1(C(=O)O)CCC[C@]2(C)c3cc(O)ccc3CC[C@@H]12` [Podocarpic acid], the cell viability under setting [1] stood at 92.5%. `CCCN1CCC[C@@H]2Cc3n[nH]cc3C[C@H]21`: the cell viability (compound concentration: 3 uM) was 109%. Still for that read-out and setting: in the case of `CCCN1CCC[C@@H]2Cc3n[nH]cc3C[C@H]21` [(-)-Quinpirole hydrochloride] it was 102%; in that of `CCCN1CCC[C@@H]2Cc3n[nH]cc3C[C@H]21` (racemic) [(±)-Quinpirole dihydrochloride], 102%; in that of `C=C(C)CN1CC[C@]23c4c5ccc(O)c4O[C@H]2c2[nH]c4ccccc4c2C[C@@]3(O)C1C5`, 104%. Still for that read-out and setting: in the case of `CC(=O)O[C@H]1CC[C@@]2(C)C(=CC[C@@H]3[C@@H]2CC[C@]2(C)C(=O)CC[C@@H]32)C1` [Dehydroisoandosterone 3-acetate] it was 97.4%. As to `CC(=O)O[C@H]1CC[C@@]2(C)C(=CC[C@@H]3[C@@H]2CC[C@]2(C)C(=O)CC[C@@H]32)C1`, the cell viability (compound concentration: 3 uM) is 114%.

Regarding `O=C(NCNC(=O)NC1C(=O)NC(=O)N1CO)NC1C(=O)NC(=O)N1CO` (stereo not given) [Imidurea], the cell viability (compound concentration: 3 uM) was 90.1%.

Take `CN1C[C@H](CNC(=O)OCc2ccccc2)C[C@@H]2c3cccc4c3c(cn4C)C[C@H]21`: the cell viability (compound concentration: 3 uM) was found to be 103%. `CN1C[C@H](CNC(=O)OCc2ccccc2)C[C@@H]2c3cccc4c3c(cn4C)C[C@H]21` [Metergoline]: where the note is “compound concentration: 3 uM”, the cell viability was found to be 101 ± 11%. For the compound `NNc1ccn([C@@H]2O[C@H](CO)[C@@H](O)[C@H]2O)c(=O)n1` [N4-Aminocytidine], under setting [1], the cell viability is 95%. For the compound `O=C(O)CC[N+](=O)[O-]` [3-Nitropropionic acid], for the setting “compound concentration: 3 uM”, the cell viability amounted to 108%. In the case of `O=C(O)CC[N+](=O)[O-]` [BOVINOCIDIN (3-nitropropionic acid)], the cell viability (compound concentration: 3 uM) stood at 121%. On the same count and under the same terms, to `Oc1ccc2c3c1O[C@H]1[C@@H](O)CC[C@@]4(O)[C@@H](C2)N(CC2CCC2)CC[C@]314` belongs 112%; to `Oc1ccc2c3c1O[C@H]1[C@@H](O)CC[C@@]4(O)[C@@H](C2)N(CC2CCC2)CC[C@]314` [Nalbuphine], 103 ± 15%.

In the case of `Oc1ccc2c3c1O[C@H]1[C@@H](O)CC[C@@]4(O)[C@@H](C2)N(CC2CCC2)CC[C@]314` [Nalbuphine hydrochloride], the cell viability (compound concentration: 3 uM) was 99.6%.

Regarding `OCc1cnc[nH]1` [4-Imidazolemethanol hydrochloride], where the note is “compound concentration: 3 uM”, the cell viability came to 108%. As for `COc1cc2c(cc1OC)C13CCN4CC5=CCOC6CC(=O)N2C1C6C5CC43` (stereo not given), the cell viability under setting [1] was 82%. For `CC[C@@H](C)C(=O)O[C@H]1[C@H](O)[C@H]2[C@@H](CN3C[C@@H](C)CC[C@H]3[C@@]2(C)O)[C@@H]2C[C@]34O[C@]5(O)[C@@H](OC(=O)[C@@](C)(O)CC)CC[C@@]3(C)[C@@H]5[C@@H](OC(C)=O)[C@@H](OC(C)=O)[C@H]4[C@@]21O`, for the setting “compound concentration: 3 uM”, the cell viability was 108%. `NCC1(CC(=O)O)CCCCC1`: the cell viability (compound concentration: 3 uM) came out at 97.4%. On the same count and under the same terms, to `NCC1(CC(=O)O)CCCCC1` [Gabapentin] belongs 95.8 ± 12%.

Consider `O=c1cccc2n1C[C@@H]1CNC[C@H]2C1`, for which the cell viability (compound concentration: 3 uM) was 108%. As to `O=c1cccc2n1C[C@@H]1CNC[C@H]2C1` [Cytisine], the cell viability under setting [1] was determined as 99.2%. For the compound `CC(N)C(O)c1ccccc1` (stereo not given), under “compound concentration: 3 uM”, the cell viability worked out at 111%.

As to `CC(N)C(O)c1ccccc1` (stereo not given) [Phenylpropanolamine], under “compound concentration: 3 uM”, the cell viability came to 99.5%. The same measure, in the same setting: to `CC(N)C(O)c1ccccc1` (stereo not given) [Phenylpropanolamine hydrochloride] belongs 104%; to `CC1=CCCC2C1(C)CCC(C)C2(C)CC/C(C)=C/Cn1c[n+](C)c2c(N)ncnc21` (stereo not given) [AGELASINE (stereochemistry of diterpene unknown)], 107%.

For the compound `O=C(CCCN1CCC2(CC1)C(=O)NCN2c1ccccc1)c1ccc(F)cc1` [Spiperone], for the setting “compound concentration: 3 uM”, the cell viability is 111 ± 10%. The same measure, in the same setting: to `O=C(CCCN1CCC2(CC1)C(=O)NCN2c1ccccc1)c1ccc(F)cc1` belongs 112%; to `O=C(CCCN1CCC2(CC1)C(=O)NCN2c1ccccc1)c1ccc(F)cc1` [Spiperone hydrochloride], 120%; to `CCCN(CCC)C1CCc2ccc(O)cc2C1` (racemic) [(±)-7-Hydroxy-DPAT hydrobromide], 109%.

As for `C=C1CC[C@@]2(O)[C@H]3Cc4ccc(O)c5c4[C@@]2(CCN3CC2CC2)[C@H]1O5` [Nalmefene hydrochloride], the cell viability (compound concentration: 3 uM) was determined as 99.5%. Still for that read-out and setting: to `CC(C)Oc1cccnc1N(C)C1CCN(Cc2ccccc2)CC1` belongs 117%; to `O=[N+]([O-])O[C@H]1CO[C@H]2[C@@H]1OC[C@H]2O[N+](=O)[O-]` [Isosorbide dinitrate], 102%. On the same count and under the same terms, to `O=[N+]([O-])O[C@H]1CO[C@H]2[C@@H]1OC[C@H]2O[N+](=O)[O-]` belongs 96.9%; to `Cc1ncsc1CCCl` [Chlormethiazole hydrochloride], 108%; to `CCC1(c2ccc(N)cc2)CCC(=O)NC1=O` (racemic) [DL-Aminoglutethimide], 92.2%. Still for that read-out and setting: to `CCC1(c2ccc(N)cc2)CCC(=O)NC1=O` (racemic) [(±)-p-Aminoglutethimide] belongs 97.8%.

`CNC1CC(c2ccc(Cl)c(Cl)c2)c2ccccc21` (stereo not given) [Indatraline]: the cell viability (compound concentration: 3 uM) turned out to be 90%. On the same count and under the same terms, in the case of `CCCCCCC(C)(C)c1ccc([C@@H]2C[C@H](O)CC[C@H]2CCCO)c(O)c1` it was 93.8%.

Values taken from the supplement of paper PMC3682954.
